Experimental data published in PubChem BioAssay AID449 (The Scripps Research Institute Molecular Screening Center, 2006).
The list shows a part of the results. Shown are side measurements of this screen, not its main read-out; they come without a call. Most of these compounds were active or inconclusive in the main read-out, so they are no random draw.

The chains behind the UniProt entries cited, without tags or fusion partners.
UniProt P21453, whole entry, looked up: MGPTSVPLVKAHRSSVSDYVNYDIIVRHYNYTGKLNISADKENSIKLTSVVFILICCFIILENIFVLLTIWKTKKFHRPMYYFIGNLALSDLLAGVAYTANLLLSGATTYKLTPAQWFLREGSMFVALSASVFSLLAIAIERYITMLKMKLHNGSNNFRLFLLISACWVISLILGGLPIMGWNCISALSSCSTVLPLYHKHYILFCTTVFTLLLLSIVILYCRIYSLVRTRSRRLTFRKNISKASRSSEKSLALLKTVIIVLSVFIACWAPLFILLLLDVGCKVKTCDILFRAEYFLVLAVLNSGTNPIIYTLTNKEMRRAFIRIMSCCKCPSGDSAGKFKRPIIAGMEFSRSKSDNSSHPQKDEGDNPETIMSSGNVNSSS

molecular target: Sphingosine 1-phosphate receptor 1 (Homo sapiens) (UniProt P21453); assay: S1P1 agonists and agonism potentiators, primary screen, cell-based, primary and confirmation screens, CRE-bla reporter (AID 449); conditions: S1P1 CRE-bla cells, forskolin, beta-lactamase FRET, potentiator mode; measured here: confirmation screen, triplicate average; at 9.5 µM; stronger effect = higher value; 100% = saturating reference agonist, 0% = basal; S1P1 agonist co-added at EC20, 2 nM;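 note: forskolin at 4 µM as EC80 and the EC20 agonist is SEW2871; 100% = SEW2871 at its EC100 plus forskolin at EC80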

| SMILES | activation |
| --- | --- |
| COCCn1c(C)cc(C(=O)CSc2nnc(-c3cccnc3)n2-c2ccccc2F)c1C | 86.9% |
| CC(C)c1cc(C(F)(F)F)n2nc(C(=O)Nc3ccc4c(c3)OCO4)cc2n1 | 94.7% |
| OC1(c2cccc(C(F)(F)F)c2)CCN(c2ncnc3c2[nH]c2ccc(F)cc23)CC1 | 104% |
| CCOc1ccc(-c2nc(-c3ccccc3C)no2)cc1 | 104% |
| O=C(Nc1ccc(S(=O)(=O)NCc2ccco2)cc1)c1ccc2ccccc2n1 | 70.1% |
| O=C(NCc1ccccc1)N1CCN(c2ccc(Cl)c(Cl)c2)CC1 | 111% |
| Cc1ccc(C(C)C)c(OCc2ccc(-c3nnco3)cc2)c1 | 96% |
| Fc1ccccc1COc1ccc(/C=N/n2cnnc2)cc1 | 86.8% |
| CN=C(NC#N)SCC(=O)c1ccc(Cl)cc1Cl | 65.6% |
| CC1=C(C(=O)OCc2ccc3c(c2)OCO3)C(c2ccccc2)NC(=O)N1 (stereo not given) | 83.9% |
| Cc1ccc(NC(=O)c2cc(-c3ccco3)on2)cc1C | 59.6% |
| CC1=C(C(=O)OCc2ccc3c(c2)OCO3)C(c2ccc(Cl)cc2)NC(=O)N1 (stereo not given) | 103% |
| COC(=O)CS(=O)(=O)c1nnc([C@H](Cc2ccccc2)NC(=O)OC(C)(C)C)o1 | 85.5% |
| O=C(CCc1nc(-c2ccccc2F)no1)Nc1ccc(Oc2ccccc2)cc1 | 116% |
| CCN=c1scc(-c2ccc3c(c2)NC(=O)CO3)n1N=C1CCCC1 | 75% |
| CCOc1ccc(-c2nnc(-c3cccs3)o2)cc1OCC | 102% |
| Cc1nn(Cc2ccc(Cl)c(Cl)c2)c(C)c1NC(=O)c1cc(CC(C)C)on1 | 90.3% |
| Cc1cc(C(=O)CSc2nnnn2C)c(C)n1-c1cccc(F)c1 | 93.9% |
| CC(C)c1cc(C(=O)N2CCN(C(c3ccccc3)c3ccccc3)CC2)no1 | 70.8% |
| O=S(=O)(Nc1ccc2c(c1)OCCO2)c1ccc2oc3ccccc3c2c1 | 74.2% |
| Cc1cccc(-n2ncc3c(N(C)C4CCCCC4)ncnc32)c1 | 65.2% |
| COc1ccccc1Oc1ccc2c(c1)C(=O)N(c1cccc(O)c1)C2=O | 93% |
| O=C(Nc1nc(-c2nc3ccccc3s2)cs1)c1ccc(S(=O)(=O)N2CCOCC2)cc1 | 111% |
| O=C(Nc1ccc(N2CCCCC2)c(Cl)c1)c1ncn[nH]1 | 101% |
| CCOc1ccc(-c2nc(-c3ccc(OC)cc3)no2)cc1OCC | 105% |
| COc1ccc(-c2nc(-c3ccc(Br)o3)no2)cc1OC | 87.7% |
| Cc1nnc(SCC(=O)N2CCC(c3noc4ccc(F)cc34)CC2)s1 | 70.4% |
| Clc1ccc(OCc2nc(-c3ccncc3)no2)c(Br)c1 | 81.7% |

Some of the entries above in a different format:
CCN=c1scc(-c2ccc3c(c2)NC(=O)CO3)n1N=C1CCCC1
  activation: 75%
CC(C)c1cc(C(=O)N2CCN(C(c3ccccc3)c3ccccc3)CC2)no1
  activation: 70.8%
Cc1cccc(-n2ncc3c(N(C)C4CCCCC4)ncnc32)c1
  activation: 65.2%
O=C(Nc1nc(-c2nc3ccccc3s2)cs1)c1ccc(S(=O)(=O)N2CCOCC2)cc1
  activation: 111%

Following part:

| SMILES | activation |
| --- | --- |
| FC(F)(F)c1ccc(N2CCN(c3cc(-c4ccccc4)nc4ncnn34)CC2)nc1 | 118% |
| Cn1nc(CC(=O)Nc2ccc(N3CCN(C(=O)OC(C)(C)C)CC3)cc2)c2ccccc2c1=O | 55.4% |
| COc1ccc(N=c2scc(-c3ccc(S(=O)(=O)N4CCOCC4)cc3)n2CCCO)cc1 | 63.7% |
| CCOc1ccc(-c2noc(-c3ccncc3)n2)cc1OCC | 102% |
| N#Cc1nc(COc2ccc(Cl)cc2Cl)oc1N1CCN(c2ccccc2)CC1 | 76% |
| CCOc1ccc(-c2nnc(-c3cccnc3)o2)cc1OCC | 84.6% |
| Cc1nc2ccc3nc(NC(=O)C4COc5ccccc5O4)sc3c2s1 (stereo not given) | 58.9% |
| CCNc1nc2c(c(=O)n(C)c(=O)n2C)n1Cc1ccc(Cl)cc1 | 65.2% |
| CCOc1ccc(-c2nc(-c3ccccc3)no2)cc1OCC | 105% |
| O=C(Nc1ccc(N2CCCC2)c(Cl)c1)c1ccc(Br)o1 | 85.2% |
| O=C(Nc1nc2c(s1)CCCC2)c1cc2n(n1)C(C(F)(F)F)CC(C1CC1)N2 (stereo not given) | 100% |
| O=C1C2C3C=CC(CO)(O3)C2C(=O)N1c1ccccc1-c1ccccc1 (stereo not given) | 85% |
| CCOc1ccccc1OCCCCCc1c(C)n[nH]c1C | 94.3% |
| Fc1ccc(COc2ccc(/C=N/n3cnnc3)cc2)cc1 | 77.4% |
| N#Cc1nc(-c2ccc(OCc3ccccc3)cc2)oc1NCc1cccnc1 | 109% |
| Cc1ccnc(SCC(=O)Nc2sc3c(c2C#N)CCCC3)n1 | 113% |
| C/C(N)=C(/C#N)C(=O)CSc1nnc(SCc2ccc(Cl)cc2)s1 | 64.7% |
| O=C(Nc1c(F)cc(F)cc1Br)c1cc(-c2ccc(O)cc2)on1 | 107% |
| CCCN(C(=O)c1cccs1)c1nnc(-c2ccncc2)s1 | 77.5% |
| Cc1cc(C(=O)CSc2nnc(-c3ccco3)o2)c(C)n1-c1ccc2c(c1)OCCO2 | 66.1% |
| CCCOC(=O)c1ccc(OCC(O)Cn2c(C)nc3ccccc32)cc1 (stereo not given) | 56.6% |
| Cc1ccccc1OCCCCc1c(C)n[nH]c1C | 103% |
| CCOC(=O)c1c(C)[nH]c(C(=O)C(C)OC(=O)c2cccc(OCc3c(C)noc3C)c2)c1C (stereo not given) | 104% |
| O=S(=O)(C/C(=C/CO)S(=O)(=O)c1ccccc1)c1ccccc1 | 106% |
| Cc1oc2cc(O)cc(O)c2c(=O)c1-c1ccc2c(c1)OCCCO2 | 86.6% |
| CC(=O)c1c(C)[nH]c(C(=O)OCCCCN2C(=O)c3ccccc3C2=O)c1C | 96.9% |
| Clc1ccc(-c2nc3nc4ccccc4nc3n2Cc2ccco2)cc1 | 72.3% |
